According to publication PMC12040169 (PLOS Biology, 2025):
The list shows a part of the results.

The molecules below were run on T1, CTL2-GFP (C. trachomatis L2/434/Bu, GFP-expressing). Details: bulk GFP, single well; 28.5 h, 10 µM; inhibitor.
T1 construct: L2/434/Bu, GFP-expressing
Set-up: species or system HeLa; Intracellular C. trachomatis growth in HeLa cells, bulk GFP fluorescence relative to DMSO

Compound	% of control remaining [%]
O=C(C1CC1)N1CCC2(CC1)Nc1ccccc1-n1cccc12 [CBK284011]	132.632
Cc1csc2ncc(C(=O)Nc3ccc(F)c(Cl)c3)c(=O)n12 [CBK287460]	99.3895
Cc1nc2ccc(C(=O)N3CCN(C(=O)c4ccc(Cl)cc4)CC3)cc2nc1C [CBK296647]	162.583
CCCCOc1ccc(-c2nc(SCC(=O)O)c3c4c(sc3n2)COC(C)(C)C4)cc1 [CBK267716]	110.206
CNC(=O)C(NC(=S)NC(=O)c1ccc(F)cc1)C(C)(C)C (stereo not shown) [CBK021945]	106.982
CCNC(=O)C1CCN(C(=O)c2coc(COc3cccc(F)c3)n2)C1 (stereo not shown) [CBK307466]	109.943
O=C(COc1cccc(Cl)c1)N/N=C\c1ccc(C(=O)O)cc1 [CBK262293]	102.926
COc1cccc2cc(C(=O)C3=C(O)C(=O)N(CCCN4CCOCC4)C3c3ccc(C)cc3)oc12 (stereo not shown) [CBK266420]	96.8374
CCOC(=O)c1[nH]c2ccccc2c1NS(=O)(=O)c1cccc(Cl)c1C [CBK047423]	99.2718
COc1ccc2cc(/C=N/NC(=O)CN3CCCCC3)c(Cl)nc2c1 [CBK018181]	130.879
Cc1ccccc1C(c1cnccn1)N(C)C(=O)C1CCN(C(=O)c2ccccc2)CC1 (stereo not shown) [CBK060208]	109.507
CC(C)CSc1nnc(-c2ccccc2F)n1CC(C)C [CBK200091]	120.302
O=C(NC(=S)Nc1ccccc1)c1cncc(Br)c1 [CBK092040]	138.316
COCCCN(Cc1ccccn1)Cc1cccc(F)c1F [CBK282947]	130.766
CC(C)Nc1nccnc1Sc1cccc(C(=O)O)c1 [CBK093581]	92.4323
COc1ccc(NC(=O)c2cnn3c2NC(C(=O)O)=CC3c2ccccc2)cc1 (stereo not shown) [CBK287240]	129.095
Cc1nc2ncccn2c1-c1csc(Nc2ccc(S(N)(=O)=O)cc2)n1 [CBK263294B]	124.692
Cn1cnnc1SC1c2cccc3cccc(c23)C1NS(=O)(=O)c1ccc(Cl)cc1 (stereo not shown) [CBK264707]	114.213
Cc1cccc(CN2CCC(NC(=O)NCc3ccn(C)c3)CC2)c1 [CBK305259]	152.133
COc1ccc(OCC(=O)N/N=C/c2ccc([N+](=O)[O-])s2)c(I)c1 [CBK261374]	100.395
O=C1NCC(C2CCN(Cc3ccccc3)CC2)Oc2ccccc21 (stereo not shown) [CBK282314]	148.735
Cc1ccc(OCC(O)CN2CCC(C(N)=O)CC2)cc1C (stereo not shown) [CBK057100]	121.191

Not a retest: entries from further up.
Compound	% of control remaining [%]
Cc1nc2ncccn2c1-c1csc(Nc2ccc(S(N)(=O)=O)cc2)n1 [CBK263294B]	124.692
Cn1cnnc1SC1c2cccc3cccc(c23)C1NS(=O)(=O)c1ccc(Cl)cc1 (stereo not shown) [CBK264707]	114.213
Cc1cccc(CN2CCC(NC(=O)NCc3ccn(C)c3)CC2)c1 [CBK305259]	152.133
COc1ccc(OCC(=O)N/N=C/c2ccc([N+](=O)[O-])s2)c(I)c1 [CBK261374]	100.395
O=C1NCC(C2CCN(Cc3ccccc3)CC2)Oc2ccccc21 (stereo not shown) [CBK282314]	148.735
